Measurements taken from article PMC4564764, “Collagen Q and anti-MuSK autoantibody competitively suppress agrin/LRP4/MuSK signaling” (Scientific Reports, 2015).
No constants are given. Whether binding was seen depends on the method and setting. For some assays here: Binding seen in cells or lysates may run through a third protein. Some results given as binding are weak or reduced against the parent protein; the word gives no strength. Where a sequence is shown, tags or fusion partners need not be part of it.

Protein sequences, listed by entry. Tags and fused reporters are not part of them. Residues count along the entry.
UniProt Q9Y215, residues 23-455: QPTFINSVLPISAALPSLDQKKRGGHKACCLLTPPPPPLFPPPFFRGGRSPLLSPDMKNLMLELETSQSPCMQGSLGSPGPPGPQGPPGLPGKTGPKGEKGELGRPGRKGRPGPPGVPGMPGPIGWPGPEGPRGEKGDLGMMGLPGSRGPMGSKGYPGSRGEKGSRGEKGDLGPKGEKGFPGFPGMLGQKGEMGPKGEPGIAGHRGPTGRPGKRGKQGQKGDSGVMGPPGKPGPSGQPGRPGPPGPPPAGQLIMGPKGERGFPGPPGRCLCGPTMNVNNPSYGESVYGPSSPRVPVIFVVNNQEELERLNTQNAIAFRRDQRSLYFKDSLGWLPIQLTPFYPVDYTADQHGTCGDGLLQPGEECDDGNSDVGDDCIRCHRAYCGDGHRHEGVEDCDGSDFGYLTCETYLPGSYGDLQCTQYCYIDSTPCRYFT

How the values were obtained:
[1] = target: T1, purified recombinant ectodomain of human MuSK fused to myc (hMuSKect-myc), wild type (human) (UniProt O15146); assay: co-IP; HEK293 cotransfected with wild-type or domain-deleted phMUSKect-myc and pFLAG-COLQ; lysis in 50 mM HEPES pH 7.0, 150 mM NaCl, 0.5% NP-40; IP with anti-myc (9E10) and Dynabeads Protein G; blot with anti-FLAG-HRP
T1 sequence: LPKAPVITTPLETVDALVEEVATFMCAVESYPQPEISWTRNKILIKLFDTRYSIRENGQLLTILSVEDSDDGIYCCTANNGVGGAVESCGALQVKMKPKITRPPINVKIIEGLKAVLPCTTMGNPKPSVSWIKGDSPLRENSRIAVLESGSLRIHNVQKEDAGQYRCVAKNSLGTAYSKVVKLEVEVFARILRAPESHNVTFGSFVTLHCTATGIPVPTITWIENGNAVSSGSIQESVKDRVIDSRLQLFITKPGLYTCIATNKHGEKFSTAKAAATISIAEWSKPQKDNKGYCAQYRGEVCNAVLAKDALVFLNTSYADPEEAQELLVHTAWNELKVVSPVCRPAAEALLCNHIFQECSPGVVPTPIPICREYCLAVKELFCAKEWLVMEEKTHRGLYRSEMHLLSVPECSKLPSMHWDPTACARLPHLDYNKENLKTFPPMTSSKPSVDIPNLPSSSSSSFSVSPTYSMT

[2] = target: T1, purified recombinant ectodomain of human MuSK fused to myc (hMuSKect-myc), wild type (human); assay: ELISA; in vitro plate-binding assay, competition: hMuSKect-myc coated; 0.12 Ellman units of AChE/ColQ or AChE/ColQ_ΔCTD complex overlaid at 4 °C for 3 h, wells washed; then hLRP4N-FLAG with agrin; anti-FLAG-HRP, normalised to no AChE/ColQ complex; both purified

binding [1] | binding [2] | Substance
binds |  | FLAG-ColQ (human collagen Q with FLAG inserted between codons 35 and 36) (from UniProt Q9Y215 23-455)
 | binds | purified recombinant human AChE/ColQ complex (wild type) (from UniProt Q9Y215 23-455; P22303 32-614)
